Among the data in the supplement of paper PMC12819154, “High-throughput peptide-centric local stability assay extends protein–ligand identification to membrane proteins, tissues and bacteria” (Nature Structural & Molecular Biology, 2025) are log2 fold change values, retold here.

Amino acid sequences for entries named in this document (tags omitted). A change or cut given only in a name is not applied to a line headed by its entry.
UniProt Q8TBX8: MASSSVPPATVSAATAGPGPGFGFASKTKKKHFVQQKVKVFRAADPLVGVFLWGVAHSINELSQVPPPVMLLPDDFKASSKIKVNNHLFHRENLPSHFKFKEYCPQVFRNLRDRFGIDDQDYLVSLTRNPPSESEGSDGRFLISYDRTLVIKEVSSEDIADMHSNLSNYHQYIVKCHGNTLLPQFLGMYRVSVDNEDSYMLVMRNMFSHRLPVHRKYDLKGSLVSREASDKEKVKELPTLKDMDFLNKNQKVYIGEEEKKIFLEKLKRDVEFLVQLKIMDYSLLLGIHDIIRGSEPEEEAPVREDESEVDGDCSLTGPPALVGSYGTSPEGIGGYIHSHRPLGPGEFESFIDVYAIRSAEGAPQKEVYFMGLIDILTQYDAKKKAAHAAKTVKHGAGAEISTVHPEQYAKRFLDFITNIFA
UniProt Q8WYL5: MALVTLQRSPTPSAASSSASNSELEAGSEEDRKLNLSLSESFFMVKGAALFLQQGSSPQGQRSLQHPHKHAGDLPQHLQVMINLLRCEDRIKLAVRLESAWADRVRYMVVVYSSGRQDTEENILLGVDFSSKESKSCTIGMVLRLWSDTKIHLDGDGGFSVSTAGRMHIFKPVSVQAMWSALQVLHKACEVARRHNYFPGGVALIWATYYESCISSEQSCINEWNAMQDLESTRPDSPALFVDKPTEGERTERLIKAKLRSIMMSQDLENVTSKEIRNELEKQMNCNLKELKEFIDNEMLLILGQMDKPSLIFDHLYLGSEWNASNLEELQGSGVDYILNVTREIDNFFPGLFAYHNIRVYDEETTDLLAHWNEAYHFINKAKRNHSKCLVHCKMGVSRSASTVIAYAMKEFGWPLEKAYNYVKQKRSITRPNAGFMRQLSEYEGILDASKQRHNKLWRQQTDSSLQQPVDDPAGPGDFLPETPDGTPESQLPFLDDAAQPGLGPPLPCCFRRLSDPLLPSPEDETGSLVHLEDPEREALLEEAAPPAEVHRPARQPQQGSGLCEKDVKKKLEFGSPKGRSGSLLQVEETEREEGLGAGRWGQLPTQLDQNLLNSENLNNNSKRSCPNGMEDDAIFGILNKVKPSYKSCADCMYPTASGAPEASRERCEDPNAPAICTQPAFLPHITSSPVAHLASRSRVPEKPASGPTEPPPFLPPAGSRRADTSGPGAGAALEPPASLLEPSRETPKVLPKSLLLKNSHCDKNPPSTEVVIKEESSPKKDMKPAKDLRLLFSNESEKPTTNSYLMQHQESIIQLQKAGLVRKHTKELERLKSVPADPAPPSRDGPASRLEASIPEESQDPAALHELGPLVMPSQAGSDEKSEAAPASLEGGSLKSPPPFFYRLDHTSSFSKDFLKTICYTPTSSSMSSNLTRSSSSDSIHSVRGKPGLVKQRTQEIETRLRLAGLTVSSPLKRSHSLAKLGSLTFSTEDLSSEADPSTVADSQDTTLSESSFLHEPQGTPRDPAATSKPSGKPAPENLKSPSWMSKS
UniProt Q8TAC1: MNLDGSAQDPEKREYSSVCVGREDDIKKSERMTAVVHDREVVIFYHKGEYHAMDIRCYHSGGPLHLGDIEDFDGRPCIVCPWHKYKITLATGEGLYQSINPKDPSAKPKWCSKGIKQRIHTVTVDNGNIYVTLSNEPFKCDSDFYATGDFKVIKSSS
UniProt Q8TDD1, whole entry: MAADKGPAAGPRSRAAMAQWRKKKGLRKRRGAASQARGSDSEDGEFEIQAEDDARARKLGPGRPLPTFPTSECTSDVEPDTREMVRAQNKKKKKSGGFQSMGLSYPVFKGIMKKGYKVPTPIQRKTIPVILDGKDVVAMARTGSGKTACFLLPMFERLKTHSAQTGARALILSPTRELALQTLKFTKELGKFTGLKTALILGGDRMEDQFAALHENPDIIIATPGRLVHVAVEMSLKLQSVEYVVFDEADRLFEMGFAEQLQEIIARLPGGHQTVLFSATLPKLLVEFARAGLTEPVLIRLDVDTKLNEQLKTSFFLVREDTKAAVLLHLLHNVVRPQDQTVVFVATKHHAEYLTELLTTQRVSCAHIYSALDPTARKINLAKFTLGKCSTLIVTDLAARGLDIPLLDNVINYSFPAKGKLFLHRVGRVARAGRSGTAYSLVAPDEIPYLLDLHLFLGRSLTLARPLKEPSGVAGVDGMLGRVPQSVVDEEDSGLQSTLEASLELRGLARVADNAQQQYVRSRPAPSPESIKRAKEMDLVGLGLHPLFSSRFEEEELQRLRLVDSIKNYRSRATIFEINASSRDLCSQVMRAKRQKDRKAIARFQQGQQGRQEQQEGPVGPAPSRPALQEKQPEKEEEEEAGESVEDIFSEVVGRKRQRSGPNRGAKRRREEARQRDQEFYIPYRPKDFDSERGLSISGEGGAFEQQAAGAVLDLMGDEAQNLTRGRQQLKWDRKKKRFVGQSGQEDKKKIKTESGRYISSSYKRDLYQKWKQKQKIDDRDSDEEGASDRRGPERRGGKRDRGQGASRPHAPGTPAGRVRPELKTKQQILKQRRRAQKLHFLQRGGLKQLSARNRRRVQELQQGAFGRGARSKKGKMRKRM
UniProt Q8WXX5: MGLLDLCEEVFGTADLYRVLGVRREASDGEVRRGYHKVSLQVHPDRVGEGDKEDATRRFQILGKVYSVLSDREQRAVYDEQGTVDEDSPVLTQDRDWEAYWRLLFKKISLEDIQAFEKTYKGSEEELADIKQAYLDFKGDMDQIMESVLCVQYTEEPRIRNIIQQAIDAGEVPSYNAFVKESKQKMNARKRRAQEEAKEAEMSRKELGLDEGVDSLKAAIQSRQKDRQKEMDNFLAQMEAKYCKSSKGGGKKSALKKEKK
UniProt Q8TAT6: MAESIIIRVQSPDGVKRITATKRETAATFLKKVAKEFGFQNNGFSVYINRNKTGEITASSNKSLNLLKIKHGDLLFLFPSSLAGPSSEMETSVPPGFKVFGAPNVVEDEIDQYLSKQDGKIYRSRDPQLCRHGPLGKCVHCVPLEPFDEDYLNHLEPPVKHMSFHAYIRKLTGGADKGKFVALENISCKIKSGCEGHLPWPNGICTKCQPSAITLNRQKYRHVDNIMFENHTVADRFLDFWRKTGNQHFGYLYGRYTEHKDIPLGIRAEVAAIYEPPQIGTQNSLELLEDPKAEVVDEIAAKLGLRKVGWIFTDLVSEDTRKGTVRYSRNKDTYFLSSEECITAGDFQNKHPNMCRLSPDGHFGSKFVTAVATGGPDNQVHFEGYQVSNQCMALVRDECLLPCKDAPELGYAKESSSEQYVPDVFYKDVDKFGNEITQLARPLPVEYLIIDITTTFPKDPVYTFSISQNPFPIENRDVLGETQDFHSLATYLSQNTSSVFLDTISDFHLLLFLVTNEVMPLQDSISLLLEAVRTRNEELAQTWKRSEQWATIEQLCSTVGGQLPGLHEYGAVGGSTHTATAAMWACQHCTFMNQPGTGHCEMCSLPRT
UniProt Q8TD55: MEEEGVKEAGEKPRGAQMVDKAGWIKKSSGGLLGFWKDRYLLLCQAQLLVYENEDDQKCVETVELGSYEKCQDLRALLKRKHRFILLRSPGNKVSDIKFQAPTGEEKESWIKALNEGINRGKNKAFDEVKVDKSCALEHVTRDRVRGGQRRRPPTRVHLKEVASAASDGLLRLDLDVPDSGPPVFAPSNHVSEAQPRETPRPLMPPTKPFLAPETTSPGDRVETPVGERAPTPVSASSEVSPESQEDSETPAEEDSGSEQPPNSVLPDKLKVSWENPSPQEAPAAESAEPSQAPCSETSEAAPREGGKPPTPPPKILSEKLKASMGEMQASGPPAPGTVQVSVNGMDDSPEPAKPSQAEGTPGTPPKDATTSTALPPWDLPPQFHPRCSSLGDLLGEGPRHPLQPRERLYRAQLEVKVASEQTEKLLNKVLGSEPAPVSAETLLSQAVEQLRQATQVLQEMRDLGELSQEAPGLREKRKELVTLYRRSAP
UniProt Q8WV74: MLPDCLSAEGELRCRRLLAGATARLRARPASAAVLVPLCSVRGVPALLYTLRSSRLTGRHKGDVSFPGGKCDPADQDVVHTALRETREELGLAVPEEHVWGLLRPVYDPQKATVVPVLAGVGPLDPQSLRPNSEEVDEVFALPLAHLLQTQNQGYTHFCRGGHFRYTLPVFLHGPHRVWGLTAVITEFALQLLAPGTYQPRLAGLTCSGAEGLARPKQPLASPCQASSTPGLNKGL
UniProt Q8TCB7: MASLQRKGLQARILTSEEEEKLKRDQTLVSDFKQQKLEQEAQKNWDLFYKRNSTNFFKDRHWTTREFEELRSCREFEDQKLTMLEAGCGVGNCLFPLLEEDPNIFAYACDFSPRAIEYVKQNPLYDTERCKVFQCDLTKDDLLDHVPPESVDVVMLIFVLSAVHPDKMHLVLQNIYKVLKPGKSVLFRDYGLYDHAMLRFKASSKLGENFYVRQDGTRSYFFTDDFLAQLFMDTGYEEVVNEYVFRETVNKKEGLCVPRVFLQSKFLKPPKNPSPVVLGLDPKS
UniProt Q8TBE0: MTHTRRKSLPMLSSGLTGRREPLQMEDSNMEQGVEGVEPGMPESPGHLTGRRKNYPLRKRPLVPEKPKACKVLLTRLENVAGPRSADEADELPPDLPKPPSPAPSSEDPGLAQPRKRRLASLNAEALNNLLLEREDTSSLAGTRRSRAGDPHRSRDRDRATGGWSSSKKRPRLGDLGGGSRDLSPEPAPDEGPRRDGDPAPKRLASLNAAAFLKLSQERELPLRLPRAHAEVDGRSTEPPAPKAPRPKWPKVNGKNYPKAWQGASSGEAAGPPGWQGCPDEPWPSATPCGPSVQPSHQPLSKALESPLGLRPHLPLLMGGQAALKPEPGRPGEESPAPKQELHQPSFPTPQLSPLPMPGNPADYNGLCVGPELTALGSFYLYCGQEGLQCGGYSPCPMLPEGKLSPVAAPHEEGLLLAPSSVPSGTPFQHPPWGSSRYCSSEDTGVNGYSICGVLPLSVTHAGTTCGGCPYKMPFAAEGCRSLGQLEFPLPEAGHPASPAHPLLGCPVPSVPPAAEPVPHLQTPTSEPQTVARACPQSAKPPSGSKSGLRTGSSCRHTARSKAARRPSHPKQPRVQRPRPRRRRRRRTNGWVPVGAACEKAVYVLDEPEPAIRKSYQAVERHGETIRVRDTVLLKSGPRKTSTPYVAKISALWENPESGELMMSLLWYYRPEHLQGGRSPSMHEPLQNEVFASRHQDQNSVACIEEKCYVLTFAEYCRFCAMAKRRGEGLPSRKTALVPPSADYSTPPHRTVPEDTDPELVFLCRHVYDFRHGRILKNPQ
UniProt Q8TF05: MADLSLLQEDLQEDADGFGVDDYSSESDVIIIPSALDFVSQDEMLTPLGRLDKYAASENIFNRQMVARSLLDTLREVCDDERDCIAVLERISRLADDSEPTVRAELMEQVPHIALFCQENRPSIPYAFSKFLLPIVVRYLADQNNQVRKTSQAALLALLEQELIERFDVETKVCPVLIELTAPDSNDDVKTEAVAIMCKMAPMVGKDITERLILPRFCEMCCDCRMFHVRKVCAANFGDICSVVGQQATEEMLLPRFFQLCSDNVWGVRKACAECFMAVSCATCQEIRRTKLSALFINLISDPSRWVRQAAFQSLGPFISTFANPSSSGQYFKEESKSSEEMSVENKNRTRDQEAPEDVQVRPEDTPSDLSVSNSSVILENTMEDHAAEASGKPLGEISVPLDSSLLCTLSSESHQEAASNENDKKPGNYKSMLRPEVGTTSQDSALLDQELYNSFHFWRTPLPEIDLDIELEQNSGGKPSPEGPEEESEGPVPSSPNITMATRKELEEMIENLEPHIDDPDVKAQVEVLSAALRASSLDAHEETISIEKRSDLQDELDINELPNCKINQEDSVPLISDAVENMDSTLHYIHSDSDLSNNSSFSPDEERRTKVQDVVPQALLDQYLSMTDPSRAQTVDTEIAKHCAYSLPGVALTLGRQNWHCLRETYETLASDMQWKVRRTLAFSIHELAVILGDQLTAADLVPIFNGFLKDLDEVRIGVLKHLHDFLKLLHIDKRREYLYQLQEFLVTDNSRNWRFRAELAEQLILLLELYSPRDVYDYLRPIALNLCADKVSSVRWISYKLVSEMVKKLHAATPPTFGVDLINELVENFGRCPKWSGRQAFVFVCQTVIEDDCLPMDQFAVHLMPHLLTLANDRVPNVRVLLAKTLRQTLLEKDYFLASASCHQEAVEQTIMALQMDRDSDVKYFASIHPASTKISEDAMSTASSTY
UniProt Q8WW12: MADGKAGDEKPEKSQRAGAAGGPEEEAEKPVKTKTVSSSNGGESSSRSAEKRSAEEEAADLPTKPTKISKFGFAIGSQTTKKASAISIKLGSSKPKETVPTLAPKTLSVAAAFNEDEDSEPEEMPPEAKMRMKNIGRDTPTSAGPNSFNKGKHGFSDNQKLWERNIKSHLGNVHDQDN
UniProt Q8TA86: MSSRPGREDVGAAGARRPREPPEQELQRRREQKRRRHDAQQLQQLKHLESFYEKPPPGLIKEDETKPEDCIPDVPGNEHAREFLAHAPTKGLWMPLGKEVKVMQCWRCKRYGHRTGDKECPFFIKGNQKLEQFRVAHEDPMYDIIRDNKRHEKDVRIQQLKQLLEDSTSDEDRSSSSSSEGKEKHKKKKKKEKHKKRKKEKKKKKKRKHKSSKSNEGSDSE

This is one part of the list. Most values lie at the level of the controls, where differences are scatter.

Compound in the assay: Cc1nc(Nc2ncc(C(=O)Nc3c(C)cccc3Cl)s2)cc(N2CCN(CCO)CC2)n1 [dasatinib]
The experiment in a line: log2 fold change of tryptic peptide abundance, ligand vs vehicle (limited proteolysis) (log2 ratio); higher = more trypsin-susceptible (destabilized). The note with it: ligand concentration: 5 uM; sample: K562 cleared lysate.
For “CHD6 (peptide sequence: ESFLAPVFTKDEQK, peptide start residue: 2163) (UniProt Q8TD26)”, the log2 fold change was -0.411. In the case of “UniProt Q8TBX8 (peptide sequence: NPPSESEGSDGR, peptide start residue: 129)”, the log2 fold change is -0.853.

As for “UniProt Q8WYL5 (peptide sequence: EIRNELEK, peptide start residue: 275)”, the log2 fold change was -0.0986. As to “GADD45GIP1 (peptide sequence: EQHIAECMAK, peptide start residue: 118) (UniProt Q8TAE8)”, the log2 fold change was 0.134. On to “UniProt Q92572 (peptide sequence: VPNLPSFK, peptide start residue: 186)”, for which the log2 fold change worked out at 0.229. As for “UniProt Q8TEB1 (peptide sequence: ELEFNEIK, peptide start residue: 103)”, the log2 fold change was found to be 0.66. For the target “DDB2 (peptide sequence: TSEIVLRPR, peptide start residue: 12) (UniProt Q92466)”, the log2 fold change is 0.272. For the target “LRRC20 (peptide sequence: LPSEVSALQHLK, peptide start residue: 89) (UniProt Q8TCA0)”, the log2 fold change was -0.512.

Turning to “DGCR8 (peptide sequence: QTSEEKPK, peptide start residue: 583) (UniProt Q8WYQ5)”, the log2 fold change worked out at 0.724.

Turning to “RFESD (peptide sequence: MTAVVHDR, peptide start residue: 32) (UniProt Q8TAC1)”, the log2 fold change is -0.183.

Regarding “GTF3C2 (peptide sequence: DLDRPESQSPK, peptide start residue: 159) (UniProt Q8WUA4)”, the log2 fold change was 0.442. As for “UniProt Q8TD17 (peptide sequence: STYADEELVIK, peptide start residue: 255)”, the log2 fold change worked out at 0.0366. Take “PHIP (peptide sequence: GSISSTSEVHSPPNVGLR, peptide start residue: 673) (UniProt Q8WWQ0)”: the log2 fold change amounted to 0.561. For “DDX54 (peptide sequence: CSTLIVTDLAAR, peptide start residue: 389) (UniProt Q8TDD1)”, the log2 fold change was determined as 0.12.

For the target “DNAJC9 (peptide sequence: EMDNFLAQMEAKYCK, peptide start residue: 230) (UniProt Q8WXX5)”, the log2 fold change came to 0.219. For the target “PSMF1 (peptide sequence: IVSGIITPIHEQWEK, peptide start residue: 134) (UniProt Q92530)”, the log2 fold change was -0.149.

Take “ZFAND2B (peptide sequence: SSKPSNCSLC, peptide start residue: 248) (UniProt Q8WV99)”: the log2 fold change was -0.414. Regarding “NPLOC4 (peptide sequence: KTGNQHFGYLYGR, peptide start residue: 243) (UniProt Q8TAT6)”, the log2 fold change was -0.268. As for “PLEKHO2 (peptide sequence: AFDEVKVDK, peptide start residue: 125) (UniProt Q8TD55)”, the log2 fold change is -0.606. On to “UniProt Q8TAB5 (peptide sequence: SSSPEPACGTPR, peptide start residue: 124)”, for which the log2 fold change worked out at 0.0111. Take “UniProt Q8TAC2 (peptide sequence: APEALGDEDGVR, peptide start residue: 145)”: the log2 fold change stood at 0.182. In the case of “ARHGEF40 (peptide sequence: ALGAAVQLLR, peptide start residue: 1235) (UniProt Q8TER5)”, the log2 fold change was -0.299. In the case of “NUDT8 (peptide sequence: LAGLTCSGAEGLARPK, peptide start residue: 202) (UniProt Q8WV74)”, the log2 fold change is 0.223. Turning to “BICD2 (peptide sequence: VLELQTELK, peptide start residue: 118) (UniProt Q8TD16)”, the log2 fold change is -0.251.

As for “METTL6 (peptide sequence: LGENFYVR, peptide start residue: 206) (UniProt Q8TCB7)”, the log2 fold change is -0.109. For “BAHD1 (peptide sequence: AVYVLDEPEPAIRK, peptide start residue: 601) (UniProt Q8TBE0)”, the log2 fold change amounted to 0.332. “GATAD2B (peptide sequence: TLQGHSVIR, peptide start residue: 241) (UniProt Q8WXI9)”: the log2 fold change was -0.121.

As to “ZNF592 (peptide sequence: RSQPQLTQMSVPLVHQVKK, peptide start residue: 528) (UniProt Q92610)”, the log2 fold change was -0.608.

In the case of “PPP4R1 (peptide sequence: YFASIHPASTK, peptide start residue: 927) (UniProt Q8TF05)”, the log2 fold change is -0.437.

Regarding “DLG5 (peptide sequence: DAGPQGLHPSVQHQGR, peptide start residue: 1215) (UniProt Q8TDM6)”, the log2 fold change is -0.564. “PCNP (peptide sequence: RSAEEEAADLPTKPTK, peptide start residue: 52) (UniProt Q8WW12)”: the log2 fold change stood at 0.0721. Then “STARD8 (peptide sequence: SLSIESLCPEDGHR, peptide start residue: 233) (UniProt Q92502)”, with 0.332; and “UniProt Q8WVB3 (peptide sequence: YVTGWFSPYHR, peptide start residue: 389)”, with -0.0204; and “PSPC1 (peptide sequence: GFVEFAAKPPARK, peptide start residue: 199) (UniProt Q8WXF1)”, with 0.162. Turning to “FBF1 (peptide sequence: AELTAQHQR, peptide start residue: 670) (UniProt Q8TES7)”, the log2 fold change worked out at 0.819. For “ZNF526 (peptide sequence: RTAHSPASATHPFHCSQCQR, peptide start residue: 293) (UniProt Q8TF50)”, the log2 fold change was determined as 0.449. “RP9 (peptide sequence: SSRPGREDVGAAGAR, peptide start residue: 2) (UniProt Q8TA86)”: the log2 fold change came out at 0.256.
